# Test results reported in PubChem BioAssay AID1487 (National Center for Advancing Translational Sciences (NCATS), 2009).
# Where “and” joins values, the source holds several entries; their conditions need not be identical. Equal values may be shown once. The list shows a part of the results. Further columns of the screen follow, without active or inactive calls. Compounds called inactive in the main read-out are mostly missing here. Potencies come from curve fits of mixed quality, noted in brackets.
# Test: qHTS Assay for Modulators of Lamin A Splicing
# Settings: HeLa LMNA splicing GFP/RFP minigene ratio, 48 h
# How it was run: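 S3 HeLa stable clones carrying a lamin A-EGFP splicing minigene plus DsRed2 were seeded at 600 cells/well in Opti-MEM with 2% FBS, pin-dosed and incubated 48 h at 37°C. Acumen cytometry (488 nm) gave the GFP/RFP total-intensity ratio.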
# [1] = measured here: GFP splicing reporter channel
# [2] = measured here: RFP viability control channel
Compound,AC50 [1],AC50 [2]
CSc1ccccc1NC(=O)c1cc(-c2cccnc2)nc2ccc(Br)cc12,"8.91 µM [falling, single point]",–
COc1ccc(-c2nnc(SCC(=O)NCc3ccc(C)cc3)nc2-c2ccc(OC)c(OC)c2)cc1OC,–,"11.2 µM [rising, partial curve]"
COc1ccc(C(=O)NC(NC(=O)c2ccc(OC)c(OC)c2)c2ccccc2F)cc1OC,"3.55 µM [falling, partial curve, poor fit]","2 µM [falling, partial curve, poor fit]"
CC(C)COC(=O)NCCOC(=O)Nc1cccc(Cl)c1,–,"11.2 µM [rising, partial curve]"
O=C(CSc1n[nH]c(-c2ccccc2Cl)n1)N1CCN(c2ccccc2)CC1,–,"0.0251 µM [falling, full curve]"
Cc1ccc(-c2noc(CCC(=O)N3CCN(c4cccc(C(F)(F)F)c4)CC3)n2)cc1,–,"25.1 µM [rising, single point]"
CCOc1cc(/C=N/n2c(C)nc3sc(C)c(C)c3c2=O)ccc1O,"35.5 µM [rising, single point]",–
C/C(CC(=O)Nc1ccccn1)=N\NC(=O)C(=O)Nc1ccccc1C,–,"0.178 µM [falling, full curve, poor fit]"
COc1ccccc1C(=O)Nc1nc(-c2ccc(S(=O)(=O)N3CCOCC3)cc2)cs1,"10 µM [rising, partial curve]","12.6 µM [rising, partial curve]"
Cc1ccc(OCc2nnc(SCC(=O)c3ccccc3)n2-c2ccccc2)cc1,–,"10 µM [rising, partial curve]"
CCCOc1cccc(NC(=O)c2cc(C)oc2C)c1,–,"35.5 µM [rising, single point]"
CC1CC(=O)N(c2ccc(NCc3ccccc3Cl)c([N+](=O)[O-])c2)C1=O (stereo not drawn),–,"31.6 µM [rising, single point]"
CCN(C(=O)CCCC(=O)N(CC)c1ccccc1)c1ccccc1,"12.6 µM [rising, single point]",–
Cn1cc(CNC(=O)c2sc3cccc(Cl)c3c2Cl)cn1,–,"35.5 µM [rising, single point]"
CCc1ccc(C(=O)NNc2ccc(F)cc2)cc1,"22.4 µM [rising, partial curve, poor fit]",–
Cc1ccc(NC(=O)c2ccc(=O)n(CC(=O)Nc3cccc(C)c3)n2)cc1,"0.141 µM [falling, full curve, poor fit]","0.158 µM [falling, full curve, poor fit]"
CCC(C)c1ccc(OCCn2ccnc2)cc1 (stereo not drawn),"14.1 µM [rising, partial curve, poor fit]","20 µM [rising, single point]"
COc1ccc2cc(C(N)=O)c(=Nc3ccc(C)cc3)oc2c1,–,"35.5 µM [falling, partial curve, poor fit]"
Cc1ccc(S(=O)(=O)N(CC(=O)Nc2cccc([N+](=O)[O-])c2)Cc2ccc(Cl)cc2)cc1,"12.6 µM [rising, single point]","15.8 µM [rising, partial curve]"

Compound,AC50 [1],AC50 [2]
Cc1nnc(-c2cccc(Br)c2)c2cn(-c3ccccc3)nc12,–,"10 µM [rising, single point]"
O=C(C1CCCCC1)N1CC(=O)N2CCc3ccccc3C2C1 (stereo not drawn),"316 nM [rising, full curve, poor fit] and 14.1 µM [rising, partial curve]","6.31 µM [falling, partial curve, poor fit] and 35.5 µM [rising, single point]"
O=C(c1ccco1)[C@@H]1[C@@H]2C(=O)N(c3ccc(F)cc3)C(=O)[C@@H]2[C@H]2C=Cc3ccccc3N21,–,"35.5 µM [rising, single point]"
CCCN1C2=NCCN2c2ccccc21,–,"12.6 µM [rising, single point]"
C=CCn1c(SCc2csc(C)n2)nc2sc3c(c2c1=O)CCCCC3,–,"28.2 µM [rising, single point]"
CC(=O)NC(c1ccc(C)cc1)c1cc([N+](=O)[O-])c2cccnc2c1O (stereo not drawn),"35.5 µM [falling, single point]",–
CC(C)(C)C(=O)c1sc(Nc2ccccc2)nc1N,–,"2.82 µM [rising, full curve, poor fit]"
Cc1ccc(C(=O)CC2(O)C(=O)N(C)c3ccc(Br)cc32)c(C)c1 (stereo not drawn),–,"17.8 µM [rising, partial curve, poor fit]"
CC(O)CO (stereo not drawn),"11.2 µM [falling, single point]","0.00398 µM [rising, full curve, poor fit]"
COC(=O)c1ccc(NC(=S)Nc2ccc(O)cc2)cc1,"0.316 µM [falling, full curve, poor fit]","0.00447 µM [falling, full curve, poor fit]"
CCOC(=O)C(NC(=O)CCC(=O)Nc1ccc(S(N)(=O)=O)cc1)C(O)c1ccccc1 (stereo not drawn),"0.1 µM [rising, full curve, poor fit]",–
Cc1ccccc1CNc1ncnc2c1ncn2C1OC(CO)C(O)C1O (stereo not drawn),"6.31 µM [falling, partial curve, poor fit]","14.1 µM [rising, single point]"
CCOc1ccccc1CNC(=O)c1cnc2sc(N3CCCCCC3)nn2c1=O,"0.398 µM [falling, full curve]",–
CC(C)c1ccccc1NC(=O)c1ccc(CN(c2ccccc2)S(=O)(=O)c2ccccc2)cc1,"0.891 µM [falling, single point]",–
O=C(NCCc1csc2nc(-c3ccc(F)cc3)nn12)c1cccc(C(F)(F)F)c1,"0.178 µM [rising, full curve, poor fit]",–
COc1ccc(-n2ccn(CC(=O)NCCc3ccccc3)c(=O)c2=O)cc1OC,"0.398 µM [rising, full curve, poor fit]","0.891 µM [rising, full curve, poor fit]"
COc1ccc(C)cc1NC(=O)NCc1ccco1,–,"35.5 µM [rising, partial curve, poor fit]"
CCc1ccc(S(=O)(=O)NCCc2csc3nc(-c4ccccc4)nn23)s1,"12.6 µM [falling, partial curve, poor fit]",–
Fc1ccc(Nc2ncncc2-c2ccoc2)cc1,"1.78 µM [falling, partial curve]",–

Compound,AC50 [1],AC50 [2]
C=CCc1cc(Cl)ccc1OCCOCCN(C)C,"0.0282 µM [rising, full curve]","0.00794 µM [rising, full curve, poor fit]"
O=C(c1ccccc1)N1CCN(c2ccc([N+](=O)[O-])c(NCC3CCCO3)c2)CC1 (stereo not drawn),"0.112 µM [falling, full curve, poor fit]","17.8 µM [falling, single point]"
COc1ccccc1OCCC(=O)OCC(=O)Nc1cccc(Br)c1,–,"0.355 µM [rising, full curve, poor fit]"
O=c1c(-c2ccc3c(c2)OCCO3)coc2cc(OC3OC(CO)C(O)C(O)C3O)ccc12 (stereo not drawn),"0.0794 µM [rising, partial curve, poor fit]","6.31 µM [falling, single point]"
CCN1C(=O)N[C@@H](c2ccccc2)[C@H](C(=O)OC)[C@H]1C,"0.355 µM [rising, partial curve, poor fit]","0.708 µM [rising, partial curve]"
Cc1cc(N2CCN(C(c3ccccc3)c3ccccc3)CC2)n2ncnc2n1,"7.08 µM [rising, partial curve, poor fit]",–
Cn1c(NNC(=O)c2ccc(C(C)(C)C)cc2)cc(=O)n(C)c1=O,–,"12.6 µM [rising, partial curve, poor fit]"
Cc1ccccc1N(CC(=O)Nc1ccccc1C(=O)NCc1ccco1)S(=O)(=O)c1ccccc1,–,"35.5 µM [rising, single point]"
CC(C)N(Cc1ccccc1)C(=S)Nc1ccc(OC(F)F)cc1,–,"14.1 µM [rising, single point]"
CSc1ccc(CN(C)CC(=O)NC(C)c2ccccc2)cc1 (stereo not drawn),–,"5.62 µM [rising, partial curve]"
NNC(=O)CN1C(c2ccccc2)=Nc2ccc(Br)cc2C1c1ccccc1 (stereo not drawn),"14.1 µM [falling, partial curve]",–
CSc1ccc(Cl)c(C(=O)NCCOc2cc(C(C)C)ccc2C)c1,"12.6 µM [rising, single point]","22.4 µM [rising, single point]"
COc1ccc(NC(=O)CC2CCCC2)cc1S(=O)(=O)N1CCCCC1,–,"12.6 µM [rising, partial curve, poor fit]"
O=C(NC1CCCCC1)C(c1cccs1)N(C(=O)Cc1c[nH]c2ccccc12)c1ccc(F)cc1 (stereo not drawn),–,"15.8 µM [rising, single point]"
Cc1ccc2oc(-c3cccc(NC(=O)c4ccc(Br)o4)c3C)nc2c1,–,"35.5 µM [rising, single point]"
O=[N+]([O-])c1cc(C(F)(F)F)cc([N+](=O)[O-])c1N1CCN(S(=O)(=O)c2ccccc2)CC1,"3.16 µM [rising, full curve, poor fit]","11.2 µM [rising, partial curve]"
O=C(Nn1cnnc1)C(Sc1ccccc1)c1ccccc1 (stereo not drawn),–,"3.55 µM [rising, single point]"
Cc1cccc(NC(=O)c2nc(S(C)(=O)=O)ncc2Cl)c1,"4.47 µM [falling, partial curve, poor fit]","3.55 µM [falling, partial curve]"

# Part of the list above, bar-delimited:
Compound | AC50 [1] | AC50 [2]
COc1ccc(-c2nnc(SCC(=O)NCc3ccc(C)cc3)nc2-c2ccc(OC)c(OC)c2)cc1OC | – | 11.2 µM [rising, partial curve]
COc1ccc(C(=O)NC(NC(=O)c2ccc(OC)c(OC)c2)c2ccccc2F)cc1OC | 3.55 µM [falling, partial curve, poor fit] | 2 µM [falling, partial curve, poor fit]
CC(C)COC(=O)NCCOC(=O)Nc1cccc(Cl)c1 | – | 11.2 µM [rising, partial curve]
O=C(CSc1n[nH]c(-c2ccccc2Cl)n1)N1CCN(c2ccccc2)CC1 | – | 0.0251 µM [falling, full curve]
Cc1ccc(-c2noc(CCC(=O)N3CCN(c4cccc(C(F)(F)F)c4)CC3)n2)cc1 | – | 25.1 µM [rising, single point]
CCOc1cc(/C=N/n2c(C)nc3sc(C)c(C)c3c2=O)ccc1O | 35.5 µM [rising, single point] | –
C/C(CC(=O)Nc1ccccn1)=N\NC(=O)C(=O)Nc1ccccc1C | – | 0.178 µM [falling, full curve, poor fit]
COc1ccccc1C(=O)Nc1nc(-c2ccc(S(=O)(=O)N3CCOCC3)cc2)cs1 | 10 µM [rising, partial curve] | 12.6 µM [rising, partial curve]
Cc1ccc(OCc2nnc(SCC(=O)c3ccccc3)n2-c2ccccc2)cc1 | – | 10 µM [rising, partial curve]
CCCOc1cccc(NC(=O)c2cc(C)oc2C)c1 | – | 35.5 µM [rising, single point]
CC1CC(=O)N(c2ccc(NCc3ccccc3Cl)c([N+](=O)[O-])c2)C1=O (stereo not drawn) | – | 31.6 µM [rising, single point]
CCN(C(=O)CCCC(=O)N(CC)c1ccccc1)c1ccccc1 | 12.6 µM [rising, single point] | –
Cn1cc(CNC(=O)c2sc3cccc(Cl)c3c2Cl)cn1 | – | 35.5 µM [rising, single point]
CCc1ccc(C(=O)NNc2ccc(F)cc2)cc1 | 22.4 µM [rising, partial curve, poor fit] | –
Cc1ccc(NC(=O)c2ccc(=O)n(CC(=O)Nc3cccc(C)c3)n2)cc1 | 0.141 µM [falling, full curve, poor fit] | 0.158 µM [falling, full curve, poor fit]
CCC(C)c1ccc(OCCn2ccnc2)cc1 (stereo not drawn) | 14.1 µM [rising, partial curve, poor fit] | 20 µM [rising, single point]
